The experiment deals with Salmonella enterica serovar Typhimurium SL1344. In words: bacterial growth OD600 after 18 h with compound and polymyxin B; higher = more bacterial growth (less inhibition). Particulars: 50 µM, Mueller-Hinton broth.

From the supplement of paper PMC12889115 come the findings set out here.

The list shows a part of the results. Values are raw readings; no control value is given beside them.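 First-pass screen: polymyxin B was added at a level that permeabilizes the Salmonella outer membrane while sparing the inner membrane. DMSO wells, with and without polymyxin B, defined maximum growth. Because plates differed from one another, each plate's data were ranked separately and the compounds with the lowest OD600 were carried forward as hits.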

Take `COc1ccc(-c2n[nH]cc2CN2CCC(Oc3cccnc3)CC2)c(OC)c1`: the “bacterial growth OD600” value (polymyxin B 1 µg/mL) amounted to 0.767.
On to `Cc1cccc(CN2CCCC(O)(CNCC(C)(C)C)C2=O)c1` (centres undefined), for which the “bacterial growth OD600” value (polymyxin B 1 µg/mL) was found to be 0.923.
As to `Cc1ccc2cc(CNCC3CCCCC3)c(N3CCC(O)CC3)nc2c1`, the “bacterial growth OD600” value (polymyxin B 0.75 µg/mL) is 0.803.
With `OCC#Cc1ccc(CN2CCC3(CCCN(Cc4ccccc4F)C3)C2)s1` (centres undefined), under “polymyxin B 1 µg/mL”, the “bacterial growth OD600” value was found to be 0.02.
With `O=C(C1CCOCC1)N1CCc2onc(C(c3ccccc3)c3ccccc3)c2C1`, where the note is “polymyxin B 0.75 µg/mL”, the “bacterial growth OD600” value came to 0.305.
As to `Cc1cc(CN(C)C(=O)c2ccc3nc(Cc4ccccc4F)oc3c2)n[nH]1`, the “bacterial growth OD600” value (polymyxin B 1 µg/mL) was determined as 0.855.
On to `CN(CCc1cnn(C)c1)C(=O)c1cc(NC(=O)c2ccccc2)cc2ncn(C3CCCC3)c12`, for which the “bacterial growth OD600” value (polymyxin B 0.75 µg/mL) is 0.745.
As to `Cc1ccccc1CNC(=O)C1CCCN(C2CCN(C(=O)C3CC3)CC2)C1` (centres undefined), under “polymyxin B 1 µg/mL”, the “bacterial growth OD600” value was 0.885.
On to `CN(Cc1ccncn1)C(=O)c1csc2nc(-c3ccc(C(F)(F)F)cc3)cn12`, for which the “bacterial growth OD600” value (polymyxin B 1 µg/mL) was found to be 1.05.
